The DeepSol protein solubility set

Test: soluble on expression in E. coli; label from the status in PepcDB or PDB records

Sequence | soluble on expression in E. coli
ALWQFNGMIKCKIPSSEPLLDFNNYGCYCGLGGSGTPVDDLDRCCQTHDNCYKQAMKLDSCKVLVDNPYTNNYSYSCSNNEITCSSENNACEAFICNCDRNAAICFSKVPYNKEHKNLDMMNC | soluble
ASDEEIQDVSGTWYLKAMTVDREFPEMNLESVTPMTLTTLEGGNLEAKVTMLISGRCQEVKAVLEKTDEPGKYTADGGKHVAYIIRSHVKDHYIFYSEGELHGKPVRGVKLVGRDPKNNLEALEDFEKAAGARGLSTESILIPRQSETCSPGSAWSHPQFEK | soluble
FINVGERCNVAGSRKFLRLINEKKYEEALSIARKQVEDGALVIDVNMDDGLLDAREEMTTFLNLVMSEPDIARVPVMIDSSKWEVIEAGLKCLQGKSIVNSISLKEGEEIFIEHARLIKKLGAAVVVMAFDEKGQADTFERKIEVCARAYKILTEQVDFNPHDIIFDPNVLAVATGIEEHDNYAVDFIKATGWIKKNLPGAHVSGGVSNLSFSFRGNNYIREAMHAVFLYHAIRQGMDMGIVNPAASVLYTDIPADVLERIEDVVLNRRPDAAERLIETAEA | soluble
GEKILYSWGELLGKWHSNLGARPKGLSTLVKSGVPEALRAEVWQLLAGCHDNQAMLDRYRILITKDSAQESVITRDIHRTFPAHDYFKDTGGDGQESLYKICKAYSVYDEDIGYCQGQSFLAAVLLLHMPEEQAFCVLVKIMYDYGLRDLYRNNFEDLHCKFYQLERLMQEQLPDLHSHFSDLNLEAHMYASQWFLTLFTAKFPLCMVFHIIDLLLCEGLNIIFHVALALLKTSKEDLLQADFEGALKFFRVQLPKRYRAEENARRLMEQACNIKVPTKKLKKYEKEYQTMRESQLQQEDPMDRYKFVYL | soluble
GHDGEPHDLTKLLIAEVKSRPGNSQCCDCGAADPTWLSTNLGVLTCIQCSGVHRELGVRFSRMQSLTLDLLGPSELLLALNMGNTSFNEVMEAQLPSHGGPKPSAESDMGTRRDYIMAKYVEHRFARRCTPEPQRLWTAICNRDLLSVLEAFANGQDFGQPLPGPDAQAPEELVLHLAVKVANQASLPLVDFIIQNGGHLDAKAADGNTALHYAALYNQPDCLKLLLKGRALVGTVNEAGETALDIARKKHHKECEELLEQAQAGTFAFPLHVDYSWVISTENLSSDSSLSSPSALNSLSSPSALNSTASNSPGIEGLSNKEMRILMLGLDAAGKTTILYKLKLGQSVTTIPTVGFNVETVTYKNVKFNVWDVGGQDKIRPLWRHYYTGTQGLIFVVDCADRDRIDEARQELHRIINDREMRDAIILIFANKQDLPDAMKPHEIQEKLGLTRIRDRNWYVQPSCATSGDGLYEGLTWLTSNYKSKLAAALEHHHHHH | soluble
GHHHHHHAIAENLYFQSNKLKSSQKDKVRQFMIFTQSSEKTAVSCLSQNDWKLDVATDNFFQNPELYIRESVKGSLDRKKLEQLYTRYKDPQDENKIGIDGIQQFCDDLALDPASISVLIIAWKFRAATQCEFSKQEFMDGMTELGCDSIEKLKAQIPKMEQELKEPGRFKDFYQFTFNFAKNPGQKGLDLEMAIAYWNLVLNGRFKFLDLWNKFLLEHHKRSIPKDTWNLLLDFSSMIADDMSNYDEEGAWPVLIDDFVEFARPQIAGTKSTTV | not soluble
LAPGRLLYKGERGGPFHKILAPSHKREAVAHLQSLFEVSQRRACDALGVDRTTVRYQSRRPDDAEARERIRVLAGERRRFGYRRLHWLLSREGISMNHKKFRRLYREERLQVRRRGGRKRALGTRSPMTIPQGCNQRWSLDFVSDALTCGRRFRIFAVVDDFSRECVRLIADTSISGARLARELDMAITERGARPLMVVSDDGTELTSMSILRWSKERNVEWHYIAPGKPQQNGFVESFNARLRDECLNETLFTSLPQARSVLAAWRHDYNPVS | soluble
LIACVANDDVFSESETRAKFESLFRTYDKDTTFQYFKSFKRVRINFSNPLSAADARLRLHKTEFLGKEMKLYFAQTLHIGSSHLAPPNPDK | soluble
MAMKSVAVLTKGMFGRIPAQLAVSSVPSNTIQKRSNYKFVGMPNETDGTLAGDLNYGLHNVFFTELFRGFGVMLGHVFMEPATINYPFEKGPLSSRFRGEHALRRYPSGEERCIACKLCEAICPAQAITIEAETRPDGSRRTTRYDIDMTKCIYCGLCQEACPVDAIVEGPNFEYSTETHEELLYNKEKLLLNGDRWEPELASNLQAEYLYR | not soluble
MASAGDSILALTGKRTTGQGIRSQNVTAAVAIANIVKSSLGPVGLDKMLVDDVGDVIVTNDGATILKQLEVEHPAGKVLVELAQLQDEEVGDGTTSVVIVAAELLKRADELVKQKVHPTTIINGYRLACKEAVKYISENISFTSDSIGRQSVVNAAKTSMSSKIIGPDADFFGELVVDAAEAVRVENNGKVTYPINAVNVLKAHGKSARESVLVKGYALNCTVASQAMPLRVQNAKIACLDFSLMKAKMHLGISVVVEDPAKLEAIRREEFDITKRRIDKILKAGANVVLTTGGIDDLCLKQFVESGAMAVRRCKKSDLKRIAKATGATLTVSLATLEGDEAFDASLLGHADEIVQERISDDELILIKGPKSRTASSIILRGANDVMLDEMERSVHDSLCVVRRVLESKKLVAGGGAVETSLSLFLETYAQTLSSREQLAVAEFASALLIIPKVLASNAARDSTDLVTFLRA | not soluble
MASFRKNHVIIDSSDSSEDEDRKERHSSSSEVDETASMRSTDSSEPPRTIIDASLNSMASTVYTSTPNSKQSISRTGSSTTYGSSKCSTDDHYRSRSFIDNSFEKPVTPITKKLQESDEPRAKQQLRERLLRKSIKQQSDQDLTGGSSRSGWGTGENSSLESSDLINSHFSPIAKTFRHASDLDDSMNTSPPPNRSTLPSVETSSGNSPQTPYPGSPEASPQPSPPKNTASELQKLSIKELEANKDKKLKLLKFSSNLPDNGARVKLQVDEITEEIERRIINGVTDTMVVDKTTAIPPPPQPKNLIAPIPQDFAAMLDKNGRKVMSGRMTEQKILKVNKISDRLMQQLADATHTIPAETDLTDTPDGLLVELMPHQKAGLRWLVWREGQPHSGGILADDMGLGKTLSMLSLIVHQKAARRARKESGDNAADKEKRRVAKEEGLYPSNGTLIIAPASLIHQWEAEINRRLESDLLSVFMFHGTKKQRQIEPKELARYDVVITTYTLAANELMEKKAAGSKKEEDSDDESENEENPRRPAGKNDSPLARVAWSRVILDEAHAIKNRLSQCSKAVCRLSSFSRWCLSGTPIHNNLWDLYSLVRFLRIPLFGDRKFWAESIMPMKTGMADRVNLLTKNLMLRRTKDQQCALTNKKIVNLKEKKIEIHELEMVGDEANGYAIMMEAAQKLVKQIVTNTDDIQKYGQIRRRRQRGNDDEFANPYNVGPRNLAGNSNFQNMSCILLLLMRLRQACVHFHITKSGMDLDAFKINGGDDEDADMKELENLMEKTMADLTIADSDNDEEGVDTNKEEPKQPPTRIFEPDFISCKMAKTLEVVREILEKKEKVVIVSQWTSVLNLVEKHIQAGGHNYTSITGQVLVKDRQERVDSFNQEKGGAQVMLLSLTAGGVGLNLIGGNHLIMVDLHWNPALEQQACDRIYRMGQKKEVFIHRLNISKFCRLIVKGTIEQRVMDLQEKKLALAASVLEGTATRKLNKLTTADIRMLFGLDGSSNAN | not soluble
MATGIVKWFNDAKGFGFITPDEGGEDLFAHFSAINMEGFKTLKEGQRVSFDVTTGPKGKQAANIQAA | soluble
MATRVLSMSARLGPVPQPPAPQDEPVFAQLKPVLGAANPARDAALFPGEELKHAHHRPQAQPAPAQAPQPAQPPATGPRLPPEDLVQTRCEMEKYLTPQLPPVPIIPEHKKYRRDSASVVDQFFTDTEGLPYSINMNVFLPDITHLRTGLYKSQRPCVTHIKTEPVAIFSHQSETTAPPPAPTQALPEFTSIFSSHQTAAPEVNNIFIKQELPTPDLHLSVPTQQGHLYQLLNTPDLDMPSSTNQTAAMDTLNVSMSAAMAGLNTHTSAVPQTAVKQFQGMPPCTYTMPSQFLPQQATYFPPSPPSSEPGSPDRQAEMLQNLTPPPSYAATIASKLAIHNPNLPTTLPVNSQNIQPVRYNRRSNPDLEKRRIHYCDYPGCTKVYTKSSHLKAHLRTHTGEKPYKCTWEGCDWRFARSDELTRHYRKHTGAKPFQCGVCNRSFSRSDHLALHMKRHQN | soluble
MCTEQKPNLLKLSQLKMVLRALGYDPRNSKVQEMTRKIKDGRSMVMGWHGEKDYMDVDELWNALQSKDDEGDSTEDKVTTEMRSAFKLFDPESKGTITVANLKMVAKELGETLADADFDEMIREAGGDNNTGINEQQFFEIMKKTCLY | not soluble
MERVNLGGLGYDNGGVMMTRDPKPRLRWTADLHDRFVDAVAKLGGADKATPKSVLKLMGLKGLTLYHLKSHLQKYRLGQQQGKKQNRTEQNKENAGSSYVHFDNCSQGGISNDSRFDNHQRYIIYEFAFSRHNGFVKLEFDIMLMNTRRQSGNVPFAEAMRHQVDAQQRFQEQLEVQKKLQMRMEAQGKYLLTLLEKAQKSLPCGNAGETDKGQFSDFNLALSGLVGSDRKNEKAGLVTDISHLNGGDSSQEFRLCGEQEKIETGDACVKPESGFVHFDLNSKSGYDLLNCGKYGIEVKPNVIGDRLQ | soluble
MESSGSQGGRAPSYDQPDYGQQDSYDQQSGYDQHQGSYDEQSNYDQQHDSYSQNQQSYHSQRENYSHHTQDDRRDVSRYGEDNRGYGGSQGGGRGRGGYDKDGRGPMTGSSGGDRGGFKNFGGHRDYGPRTDADSESDNSDNNTIFVQGLGEGVSTDQVGEFFKQIGIIKTNKKTGKPMINLYTDKDTGKPKGEATVSFDDPPSAKAAIDWFDGKEFHGNIIKVSFATRRPEFMRGGGSGGGRRGRGGYRGRGGFQGRGGDPKSGDWVCPNPSCGNMNFARRNSCNQCNEPRPEDSRPSGGDFRGRGYGGERGYRGRGGRGGDRGGYGGDRSGGGYGGDRSSGGGYSGDRSGGGYGGDRSGGGYGGDRGGGYGGDRGGGYGGDRGGGYGGDRGGYGGDRGGGYGGDRGGYGGDRGGYGGDRGGYGGDRGGYGGDRSRGGYGGDRGGGSGYGGDRSGGYGGDRSGGGYGGDRGGGYGGDRGGYGGKMGGRNDYRNDQRNRPY | not soluble
MEYDNHLDTLGERNSYSKTDPDATFMHMKEDTMKNGQTKPGYNLQIGTENQFLIDFRLFPNPTDTLTLIPFFHSFEQRYNHLPTVGVADSGYGSEEGIRHRGRRCIEPEAVFGQMKHNMAYRRSGMWEKKRLQWTLHSLL | not soluble
MFTQKKSLQHTISQLEERIQELELELKQKDIEKQETISTIHDRVQSVVQEHQLVNNQHNTLQSLVQQLSSCFENVSTRTTHSNELNNEMLQKEQSLIQSIAEIIDCSNEGKESVHRLLIVINKLGEQSQRTSNSMNHLSERSKEIEQIVEVIQNIAAQTNLLALNASIEAARAGEHGKGFAVVANEVRKLAESTAESTKNIGNLTKKIQEEIEKAYDNTKDNLHLVDEGVEMSADTNARIENILVMIQTLQNGATNVIKAIENQKSCNDDILREFANTQQMFQKLNTTIMNHIHDAEKVDVQLSKSLQETVTS | not soluble
MGDSGKLEATIDRLLNEEKQMRLAENVAGTRKAATEILQLCFDAKDWKLLNEQILNLSKKRGQLKQAVQSMVQQAMQYIDQTPDIETRIELIKTLNNVSAGKIYVEIERARLTKKLAKIKEEQGQIAEAADLMQEVAVETFGAMAKTEKIAFILEQVRLCLDRQDFVRAQILSRKINPRVFDADTKKDKKKPKEGDNMVEEAPADIPTLLELKRIYYELMIRYYSHNNEYIEICRSYKAIYDIPSVKETPEQWIPVLRKICWFLVLAPHDPMQSSLLNATLEDKNLSEIPDFKMLLKQVVTMEVIQWTSLWNKYKDEFEKEKSMIGGSLGDKAGEDLKLRIIEHNILVVSKYYARITLKRLAELLCLSMEEAEKHLSEMVVSKALIAKIDRPSGIVCFQIAKDSNEILNSWAGNLEKLLDLVEKSCHQIHKETMVHKAALRP | not soluble
MGHHHHHHENLYFQSHLYFQSHMTDFVELMNSMSSTFNSDCATSTAEGGTLLNLNLAEDKTLKWRNLANNQFASKEKKHKDKEEEERKEARNQEEIEDIKALLADVVDAAAVKLEEEEAQNAEKVEPHTKCEIEEEGRKEMEYDQDVAKQDSEMEKKQNGKATSITVKMES | soluble
